These are yes or no findings as the source states them, for the method shown. Binding seen in cells or lysates may run through a third protein. Some results given as binding are weak or reduced against the parent protein; the word gives no strength.
What was measured:
Assay in all cases: cross-linking; XL-MS: tachyzoite soluble cytosolic lysate (hypotonic lysis), 1 µg/µL in 1x PBS, 5 mM Azide-A-DSBSO, 2 h at room temperature; digested, DBCO-bead enrichment, LC-MS/MS; cleavable (MS Annika) and non-cleavable (pLink 3) searches; low-score hits salvaged by machine learning; re-searched against a combined human and parasite database for host-parasite pairs
[1] = target: Actin ACT1 (T. gondii (endogenous in ME49 tachyzoites)) (UniProt P53476)
[2] = target: GRA2 (T. gondii (endogenous in ME49 tachyzoites)) (UniProt P13404)
[3] = target: GRA7 (T. gondii (endogenous in ME49 tachyzoites)) (UniProt O00933)
[4] = target: Leucyl aminopeptidase LAP (T. gondii (endogenous in ME49 tachyzoites)) (UniProt S8GHV2)

Chains of the proteins cited; added tags and fusions are not shown. Residues count along the entry.
UniProt P53476: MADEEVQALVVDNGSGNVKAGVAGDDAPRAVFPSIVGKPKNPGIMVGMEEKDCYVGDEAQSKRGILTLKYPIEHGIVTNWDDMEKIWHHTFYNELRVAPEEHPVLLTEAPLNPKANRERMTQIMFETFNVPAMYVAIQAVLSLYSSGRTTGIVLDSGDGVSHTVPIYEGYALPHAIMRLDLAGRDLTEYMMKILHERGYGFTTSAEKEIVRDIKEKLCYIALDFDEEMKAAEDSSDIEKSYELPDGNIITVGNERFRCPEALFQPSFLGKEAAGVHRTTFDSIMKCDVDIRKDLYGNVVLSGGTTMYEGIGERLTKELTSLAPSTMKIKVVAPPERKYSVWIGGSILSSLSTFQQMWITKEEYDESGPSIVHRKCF
UniProt P13404, residues 24-185: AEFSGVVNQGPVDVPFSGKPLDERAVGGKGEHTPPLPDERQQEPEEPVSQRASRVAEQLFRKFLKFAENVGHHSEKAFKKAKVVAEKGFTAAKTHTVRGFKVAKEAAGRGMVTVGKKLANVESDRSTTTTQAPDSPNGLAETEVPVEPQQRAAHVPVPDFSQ
UniProt O00933, residues 27-236: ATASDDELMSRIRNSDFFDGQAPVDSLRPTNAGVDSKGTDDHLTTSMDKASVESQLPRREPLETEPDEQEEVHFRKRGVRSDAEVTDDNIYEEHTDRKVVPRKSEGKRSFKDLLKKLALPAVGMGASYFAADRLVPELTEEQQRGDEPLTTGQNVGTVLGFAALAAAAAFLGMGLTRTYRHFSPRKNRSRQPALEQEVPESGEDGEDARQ

Actin ACT1 (from UniProt P53476 1-376)
binding [1]: binds

GRA2 (from UniProt P13404 24-185)
binding [2]: binds

GRA7 (from UniProt O00933 27-236)
binding [2]: binds
binding [3]: binds

B1: Leucyl aminopeptidase LAP (protein, UniProt S8GHV2 1-781)
chain: MVPPSPGASCLLSRTRQRNVLPLACSLCLYTVTVCSALRRDPTFLLNQLKIGPQFAHFSPFVETGRTSSHSGVSPSTFSGSLRSRQHAFTMRPSSFPAFLVKLPAKHKNQCRQSAAAVAGSTACWQSSLHAPACAFPFSRRNGGHPERRDAPSLSSPRSSPASFLSVLRPVTSPLPCVWKAKTPHARPLALPLPPVRTASLATFSSGSSPRRSSNHSEMSRVPAPLTVVKTDPTAIPFVGCQPAKKVRMEAVDISEAEKYSGDLIVFSVLAPGCFHDAPNASQPQKGPIALPELAQKFDDAVGQGMLKDAVEAADFKAKMGSQVFVRLPSKSAPAVKQLAALGFGSIAEVTPSAVTKAAAAFASMLLRGSGEKAKTVAVVLPTCQKVCPSAEGQRKTREMKERVVTSFLETLLVELQPDLRFKGDREDGKHSGPQVEKLTLFTDDVEAVNRAIARAKVVAPGVYFAQELVNAPANYCNPVTLARAAVEMAKEAGLEAEVLQQDDIEKLKMGCYLAVAKGSLFPPQFIHLTYKSSNPKRRVAFVGKGICFDAGGYNLKTGGAQIELMKFDMGGAAAVLGAARALGELKPENVEVHFLVAACENMISAKSYRPGDVITASNGKTVEVGNTDAEGRLTLADALVYAEKTVKADTIVDVATLTGAVIVALGYKYAGLWSNKECLASSILKSAENSGECMWHMPLAKDYAEALDSKCADMNNVGGKGKGGSIIAAVFLNKFIEQASWAHIDIAGTAWDMKTSMATGFGVRTLVEYIMDISTQTKEN
binding [4]: binds

B2: GRA1 (protein, UniProt P13403 25-190)
chain: AEGGDNQSSAVSDRASLFGLLSGGTGQGLGIGESVDLEMMGNTYRVERPTGNPDLLKIAIKASDGSYSEVGNVNVEEVIDTMKSMQRDEDIFLRALNKGETVEEAIEDVAQAEGLNSEQTLQLEDAVSAVASVVQDEMKVIDDVQQLEKDKQQLKDDIGFLTGERE
binding [2]: binds

From paper PMC12505969
